# Source: PubChem BioAssay AID1224828 (NIAID, 2016)
# Purpose: 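Find genes required for NF-kappaB p65 moving into the nucleus after LPS in mouse macrophages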 (primary screen)
# System: mouse RAW264.7 G9 macrophage reporter cells (GFP-p65, Tnf promoter-mCherry)
# Reagents: siRNA pool against mouse genes, 100 nM
# Timing: 2 days siRNA transfection, then 40 min LPS before fixation
# Treatment: LPS (Salmonella minnesota R595) at 10 ng/ml
# Read-out: 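Imaged p65 nuclear translocation ratio, normalised to the plate median, converted to robust z-scores and averaged across two replicates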
# Scale: p65 translocation robust z-score: higher = more nuclear NF-kappaB p65 after LPS than the plate median; nuclear/cytoplasmic p65 ratio: higher = more nuclear NF-kappaB p65
# Active means: 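Called active when z exceeds 3.3 or falls under -1.56 (median of Tlr4 controls), giving activity score of at least 50; no calls for control wells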
# Calls: active = hit (p65 shift raised or lowered); inactive = no clear change
# The whole screen tested about 17,000 reagents; below is a random part of them. 762 of all reagents (4.5%) were called active. 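Active calls include both raised and lowered p65 entry, mostly lowered; wells with fewer than 50 cells lack a z-score.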 Raw values vary from plate to plate and are shown uncorrected. A number with no mark means an inactive call. The numbers tell different reagents against one gene apart. Some reagents were tested in more than one well and are listed for each.
gene symbol,reagent,p65 translocation robust z-score,"nuclear/cytoplasmic p65 ratio, rep 1","nuclear/cytoplasmic p65 ratio, rep 2",low cell count flag
Avpr1a (GeneID 54140),1,0.46,1.85,1.38,enough cells to score
Avpr1a (GeneID 54140),1,0.67,1.54,1.74,enough cells to score
Tnik (GeneID 665113),1,-0.95,1.54,1.26,enough cells to score
Oxct1 (GeneID 67041),1,-0.06,1.38,1.46,enough cells to score
2610318N02Rik (GeneID 70458),1,,1.39,1.35,fewer than 50 cells per well; well left out of scoring
Emc10 (GeneID 69683),1,1.32,1.53,1.39,enough cells to score
Lypd6 (GeneID 320343),1,2.08,1.82,1.56,enough cells to score
Cdk2 (GeneID 12566),1,-0.83,1.46,1.65,enough cells to score
C230066G23Rik (GeneID 97268),1,,1.33,1.35,fewer than 50 cells per well; well left out of scoring
Rab3a (GeneID 19339),1,-0.33,1.51,1.43,enough cells to score
Dlgap4 (GeneID 228836),1,3.06,1.95,1.69,enough cells to score
H2al1m (GeneID 76383),1,,1.5,1.41,fewer than 50 cells per well; well left out of scoring
Or8b1b (GeneID 258797),1,-0.92,1.27,1.2,enough cells to score
Myoz3 (GeneID 170947),1,0.98,1.92,1.76,enough cells to score
P2ry2 (GeneID 18442),1,-1.59 (active),1.2,1.44,enough cells to score
Zfp28 (GeneID 22690),1,,1.18,1.29,fewer than 50 cells per well; well left out of scoring
Zfp28 (GeneID 22690),2,,1.18,1.39,fewer than 50 cells per well; well left out of scoring
Magix (GeneID 54634),1,0.93,1.4,1.35,enough cells to score
Arsg (GeneID 74008),1,-0.74,1.3,1.33,enough cells to score
Usp20 (GeneID 74270),1,-0.04,1.45,1.55,enough cells to score
Pik3c3 (GeneID 225326),1,0.75,1.52,1.58,enough cells to score
Golga3 (GeneID 269682),1,-1.07,1.5,1.37,enough cells to score
Rhbdd1 (GeneID 76867),1,0.09,1.27,1.35,enough cells to score
Prdm9 (GeneID 213389),1,-0.9,1.34,1.81,enough cells to score
Adgb (GeneID 215772),1,0.95,1.7,1.81,enough cells to score
Tubgcp4 (GeneID 51885),1,-0.09,1.41,1.4,enough cells to score
Fzd2 (GeneID 57265),1,-0.29,1.48,1.53,enough cells to score
Plek2 (GeneID 27260),1,-0.25,1.51,1.33,enough cells to score
Mgp (GeneID 17313),1,-0.35,1.4,1.3,enough cells to score
Cebpa (GeneID 12606),1,,1.06,1.06,fewer than 50 cells per well; well left out of scoring
4933411G06Rik (GeneID 71090),1,,1.3,1.31,fewer than 50 cells per well; well left out of scoring
Orai2 (GeneID 269717),1,,1.12,1.33,fewer than 50 cells per well; well left out of scoring
D930030K17Rik (GeneID 319422),1,-0.66,1.41,1.52,enough cells to score
Pcdhb13 (GeneID 93884),1,-0.14,1.37,1.45,enough cells to score
Syngr2 (GeneID 20973),1,-0.39,1.26,1.2,enough cells to score
Nol6 (GeneID 230082),1,2.24,2.07,1.84,enough cells to score
Bdnf (GeneID 12064),1,0.06,1.59,1.66,enough cells to score
Rogdi (GeneID 66049),1,-0.66,1.67,1.44,enough cells to score
Plac9 (GeneID 211623),1,-1.88 (active),1.51,1.2,enough cells to score
D630044L22Rik (GeneID 240054),1,-0.7,1.31,1.43,enough cells to score

Records above marked active:
gene symbol,reagent,p65 translocation robust z-score,"nuclear/cytoplasmic p65 ratio, rep 1","nuclear/cytoplasmic p65 ratio, rep 2",low cell count flag
P2ry2 (GeneID 18442),1,-1.59 (active),1.2,1.44,enough cells to score
Plac9 (GeneID 211623),1,-1.88 (active),1.51,1.2,enough cells to score
